# PMC6614449
# Protein sequences, listed by entry. Tags and fused reporters are not part of them. Lines headed by an entry give the natural chain unless they say otherwise; changes in a name come on top. Chains listed by the source or under a name are the forms on record and can include a tag or linker. Residues count along the entry.
# UniProt Q9UBS3, residues 24-223: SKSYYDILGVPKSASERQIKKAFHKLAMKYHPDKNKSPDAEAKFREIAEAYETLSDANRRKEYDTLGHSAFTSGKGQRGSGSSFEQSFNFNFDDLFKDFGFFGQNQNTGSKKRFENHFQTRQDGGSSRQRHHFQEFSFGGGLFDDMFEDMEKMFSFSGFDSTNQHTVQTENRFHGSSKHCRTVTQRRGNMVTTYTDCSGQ
# UniProt Q9UBS4, residues 23-358: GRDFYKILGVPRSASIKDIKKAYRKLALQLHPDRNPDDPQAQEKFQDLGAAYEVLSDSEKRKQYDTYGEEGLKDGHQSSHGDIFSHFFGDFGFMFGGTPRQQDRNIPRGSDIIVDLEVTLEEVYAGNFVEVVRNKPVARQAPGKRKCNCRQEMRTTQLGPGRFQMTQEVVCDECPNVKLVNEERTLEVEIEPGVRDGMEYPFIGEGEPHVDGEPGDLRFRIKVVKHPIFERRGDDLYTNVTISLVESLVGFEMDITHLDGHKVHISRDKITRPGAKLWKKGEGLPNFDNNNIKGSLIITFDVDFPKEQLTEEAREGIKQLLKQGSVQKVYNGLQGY
# UniProt P25686: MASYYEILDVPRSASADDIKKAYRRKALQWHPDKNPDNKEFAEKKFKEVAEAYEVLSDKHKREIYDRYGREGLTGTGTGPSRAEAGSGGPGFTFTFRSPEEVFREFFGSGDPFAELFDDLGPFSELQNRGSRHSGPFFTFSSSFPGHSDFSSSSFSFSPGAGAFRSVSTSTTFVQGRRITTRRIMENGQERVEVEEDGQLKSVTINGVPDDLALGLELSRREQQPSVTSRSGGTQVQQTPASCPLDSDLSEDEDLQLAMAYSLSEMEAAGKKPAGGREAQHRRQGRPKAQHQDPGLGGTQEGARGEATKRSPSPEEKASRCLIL
# UniProt O75190: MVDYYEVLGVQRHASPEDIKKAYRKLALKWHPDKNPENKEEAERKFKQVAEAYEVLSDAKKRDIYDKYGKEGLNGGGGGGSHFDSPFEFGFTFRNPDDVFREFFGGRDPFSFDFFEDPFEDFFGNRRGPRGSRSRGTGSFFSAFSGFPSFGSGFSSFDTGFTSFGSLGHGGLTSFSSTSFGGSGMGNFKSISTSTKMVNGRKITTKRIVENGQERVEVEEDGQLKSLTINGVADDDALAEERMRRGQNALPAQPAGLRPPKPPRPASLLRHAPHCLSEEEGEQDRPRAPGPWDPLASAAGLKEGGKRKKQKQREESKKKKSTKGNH
# UniProt P13569: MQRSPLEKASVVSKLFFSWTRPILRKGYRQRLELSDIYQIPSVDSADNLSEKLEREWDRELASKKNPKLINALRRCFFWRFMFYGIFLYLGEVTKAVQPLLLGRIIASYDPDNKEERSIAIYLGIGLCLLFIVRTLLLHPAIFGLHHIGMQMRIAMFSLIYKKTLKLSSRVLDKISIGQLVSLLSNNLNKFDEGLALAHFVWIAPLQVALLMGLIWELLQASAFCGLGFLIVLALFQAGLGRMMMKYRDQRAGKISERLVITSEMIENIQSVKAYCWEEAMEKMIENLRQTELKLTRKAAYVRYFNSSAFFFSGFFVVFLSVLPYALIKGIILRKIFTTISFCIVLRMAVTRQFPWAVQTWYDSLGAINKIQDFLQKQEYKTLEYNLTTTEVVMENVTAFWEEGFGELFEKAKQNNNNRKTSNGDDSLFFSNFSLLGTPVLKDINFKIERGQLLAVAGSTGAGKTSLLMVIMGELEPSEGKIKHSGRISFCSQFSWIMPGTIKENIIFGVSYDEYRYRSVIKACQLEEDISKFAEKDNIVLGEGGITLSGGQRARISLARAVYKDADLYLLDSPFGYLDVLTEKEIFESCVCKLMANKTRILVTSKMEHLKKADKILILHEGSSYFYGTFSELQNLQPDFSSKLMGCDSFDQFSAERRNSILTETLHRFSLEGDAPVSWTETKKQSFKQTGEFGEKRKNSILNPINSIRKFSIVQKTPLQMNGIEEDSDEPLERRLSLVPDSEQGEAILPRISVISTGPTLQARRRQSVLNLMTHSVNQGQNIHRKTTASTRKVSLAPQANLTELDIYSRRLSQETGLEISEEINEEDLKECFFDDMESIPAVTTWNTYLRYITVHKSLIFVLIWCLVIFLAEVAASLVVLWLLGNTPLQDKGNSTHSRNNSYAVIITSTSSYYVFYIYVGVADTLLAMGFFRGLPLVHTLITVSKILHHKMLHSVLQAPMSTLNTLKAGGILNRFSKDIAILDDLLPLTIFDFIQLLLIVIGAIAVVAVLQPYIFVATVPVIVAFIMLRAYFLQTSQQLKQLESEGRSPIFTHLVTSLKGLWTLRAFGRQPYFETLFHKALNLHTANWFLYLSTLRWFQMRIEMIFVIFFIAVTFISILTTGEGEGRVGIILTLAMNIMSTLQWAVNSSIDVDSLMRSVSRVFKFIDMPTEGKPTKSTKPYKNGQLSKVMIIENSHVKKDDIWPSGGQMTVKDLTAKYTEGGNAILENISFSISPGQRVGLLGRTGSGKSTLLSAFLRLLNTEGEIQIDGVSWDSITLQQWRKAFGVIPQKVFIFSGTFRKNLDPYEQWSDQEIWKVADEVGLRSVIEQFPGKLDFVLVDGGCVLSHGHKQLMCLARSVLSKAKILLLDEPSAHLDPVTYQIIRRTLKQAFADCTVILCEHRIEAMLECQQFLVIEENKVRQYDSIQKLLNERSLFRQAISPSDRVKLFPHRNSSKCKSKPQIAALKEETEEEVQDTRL
# FLAG-ΔF508-CFTR (P13569, form named): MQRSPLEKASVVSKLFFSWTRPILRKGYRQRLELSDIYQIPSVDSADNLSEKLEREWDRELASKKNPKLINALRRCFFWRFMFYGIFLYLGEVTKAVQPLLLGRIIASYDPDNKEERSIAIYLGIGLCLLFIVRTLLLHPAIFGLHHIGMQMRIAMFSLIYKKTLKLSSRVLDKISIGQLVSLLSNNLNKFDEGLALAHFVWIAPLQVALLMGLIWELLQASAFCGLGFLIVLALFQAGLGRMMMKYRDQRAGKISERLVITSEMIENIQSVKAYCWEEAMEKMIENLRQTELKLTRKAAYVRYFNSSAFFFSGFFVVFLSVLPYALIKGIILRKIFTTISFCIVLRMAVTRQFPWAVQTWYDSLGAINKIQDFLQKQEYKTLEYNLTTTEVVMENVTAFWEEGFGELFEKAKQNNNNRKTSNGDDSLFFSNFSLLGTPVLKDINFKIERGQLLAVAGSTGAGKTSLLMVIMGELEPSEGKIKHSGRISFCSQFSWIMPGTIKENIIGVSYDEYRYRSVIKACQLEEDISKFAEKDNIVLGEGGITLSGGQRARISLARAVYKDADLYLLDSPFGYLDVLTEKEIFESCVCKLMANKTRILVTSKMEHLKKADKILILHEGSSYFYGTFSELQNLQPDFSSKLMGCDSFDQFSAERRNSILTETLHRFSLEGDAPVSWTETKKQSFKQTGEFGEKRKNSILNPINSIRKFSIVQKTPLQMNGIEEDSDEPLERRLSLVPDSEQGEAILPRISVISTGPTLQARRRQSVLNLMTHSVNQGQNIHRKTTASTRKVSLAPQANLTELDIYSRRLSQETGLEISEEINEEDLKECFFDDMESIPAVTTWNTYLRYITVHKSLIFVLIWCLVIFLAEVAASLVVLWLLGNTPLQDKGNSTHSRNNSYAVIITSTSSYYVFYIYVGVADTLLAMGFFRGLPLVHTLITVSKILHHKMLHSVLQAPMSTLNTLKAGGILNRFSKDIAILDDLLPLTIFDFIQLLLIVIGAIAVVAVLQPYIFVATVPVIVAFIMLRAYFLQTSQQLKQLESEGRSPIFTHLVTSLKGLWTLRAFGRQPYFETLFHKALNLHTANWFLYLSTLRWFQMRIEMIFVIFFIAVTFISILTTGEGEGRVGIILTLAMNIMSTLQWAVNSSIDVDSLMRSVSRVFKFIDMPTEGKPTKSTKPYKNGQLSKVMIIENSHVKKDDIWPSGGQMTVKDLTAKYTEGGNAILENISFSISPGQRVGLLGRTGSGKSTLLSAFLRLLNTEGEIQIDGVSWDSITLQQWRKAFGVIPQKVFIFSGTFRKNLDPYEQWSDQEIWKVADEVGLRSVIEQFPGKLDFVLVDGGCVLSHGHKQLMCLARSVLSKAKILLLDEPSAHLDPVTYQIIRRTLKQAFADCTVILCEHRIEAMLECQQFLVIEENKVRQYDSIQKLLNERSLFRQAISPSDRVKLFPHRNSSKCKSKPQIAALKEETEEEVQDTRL
# No constants are given. Whether binding was seen depends on the method and setting. For part of these data: Binding seen in cells or lysates may run through a third protein. Some entries that bind do so weakly or less than the wild type.
# Legend:
# [1] = biological target: human DNAJB9-HA (DNAJB9-3HA) (human) (UniProt Q9UBS3); assay: co-IP; HEK293 lines stably expressing FLAG-WT- or FLAG-ΔF508-CFTR, transiently transfected with DNAJB9-3HA, 48 h; lysis in IP buffer; anti-FLAG resin or anti-HA resin; western blotting with anti-CFTR and anti-HA
# [2] = biological target: DNAJB11/ERjd3 (on the ProtoArray) (UniProt Q9UBS4); assay: peptide or protein array; ProtoArray protein microarray (Invitrogen / ThermoFisher) probed with purified full length FLAG-CFTR in solution; bound CFTR detected with mouse anti-FLAG monoclonal antibody and Alexa-488 secondary antibody, fluorescence scanner; mean of duplicate; both purified
# [3] = biological target: DNAJB2 (on the ProtoArray) (UniProt P25686); assay: as above
# [4] = biological target: DNAJB6 (on the ProtoArray) (UniProt O75190); assay: as above
# [5] = biological target: DNAJB9 (on the ProtoArray) (UniProt Q9UBS3); assay: as above
binding [1],binding [2],binding [3],binding [4],binding [5],Substance
binds,binds,binds,binds,binds,full length FLAG-CFTR (WT-CFTR) (from UniProt P13569 1-1480)
binds,–,–,–,–,FLAG-ΔF508-CFTR (from UniProt P13569 1-1480)
